Results deposited as PubChem BioAssay AID686937 (Drosophila RNAi Screening Center, 2013)

Aim: 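Knock-downs that reduce output of a secreted reporter enzyme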 (primary screen)
Cell system: Drosophila S2 cells expressing secreted horseradish peroxidase
Reagent: long dsRNA against Drosophila genes
Timing: about 5.5 days (5 days dsRNA, then 12 h reporter induction)
Challenge: reporter expression induced after 5 days of dsRNA, read 12 h later; inducer not stated
Detection: 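After 5 days of dsRNA and 12 h of reporter induction, medium peroxidase read by chemiluminescence and scored as per-plate z-score; higher values mean more reporter released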
Direction: z-score: higher = more reporter secreted into medium
In all, the deposit lists about 23,000 reagents; shown is a random part of those that have a named target and a result. 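Reduced-secretion tags in replicate 1 do not always agree with the z-scores; no criterion for assigning the tags was given.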 Reagents against one gene are numbered here. Not stated in the record: the amount of reagent.

Gene,dsRNA no.,"z-score, replicate 1","z-score, replicate 2","z-score, replicate 3","z-score, replicate 4","phenotype, replicate 1"
CG31778,1,0.39,0.21,,,
CG13408,1,0.29,0.42,,,
CG13408,2,0.16,0.07,,,
CG1677,1,-0.28,-0.43,,,
Or85e (Odorant receptor 85e),1,0.22,0.61,,,
CG6701,1,-1.65,0.38,,,reduced secretion
CG5050,1,0.17,0.39,,,
"SdhC (Succinate dehydrogenase, subunit C)",1,0.43,0.51,,,
Fem-1,1,0.05,0.13,,,
lace,1,0.27,0.09,,,
CG9107,1,0.18,0.17,,,
Ncoa6 (Nuclear receptor coactivator 6),1,-2.39,-1.31,,,reduced secretion
CG15861,1,0.31,-0.29,,,
Targ2 (Terminal ADP-ribose protein glycohydrolase 2),1,0.48,-0.06,,,
CG5758,1,0.26,-0.56,-0.36,-0.05,
CG5758,2,-0.47,0.05,,,
CG13492,1,0.24,0.35,,,
CG32650,1,-0.52,-0.71,,,
nAChRalpha5 (nicotinic Acetylcholine Receptor alpha5),1,0.64,0.69,,,
nAChRalpha5 (nicotinic Acetylcholine Receptor alpha5),2,0.37,0.09,,,
nAChRalpha5 (nicotinic Acetylcholine Receptor alpha5),3,0.87,0.37,-0.59,0.35,
nAChRalpha5 (nicotinic Acetylcholine Receptor alpha5),4,-0.78,0.09,,,
yip2 (yippee interacting protein 2),1,0.06,0.23,,,
Ugt49B1 (UDP-glycosyltransferase family 49 member B1),1,0.05,-0.04,,,
Rab23,1,0.34,-0.36,,,
Etf-QO (Electron transfer flavoprotein-ubiquinone oxidoreductase),1,0.16,0.17,,,
CG42233,1,0.1,0.23,,,
CG42233,2,0.32,0.44,,,
Eig71Ea (Ecdysone-induced gene 71Ea),1,0.3,0.39,,,
CheB53a (Chemosensory protein B 53a),1,0,0.07,,,
Sur-8,1,0.47,0.09,,,
gammaCOP (Coat Protein (coatomer) gamma),1,-5.77,-5.99,,,reduced secretion
CG12355,1,-2.2,-1.58,,,
CG12355,2,-0.03,0.04,,,
